In publication PMC9170289:
These are yes or no findings as the source states them, for the method shown. Some binding calls cover weakened binding; strength is not graded here.

Protein sequences, listed by entry. Tags and fused reporters are not part of them.
UniProt P22147: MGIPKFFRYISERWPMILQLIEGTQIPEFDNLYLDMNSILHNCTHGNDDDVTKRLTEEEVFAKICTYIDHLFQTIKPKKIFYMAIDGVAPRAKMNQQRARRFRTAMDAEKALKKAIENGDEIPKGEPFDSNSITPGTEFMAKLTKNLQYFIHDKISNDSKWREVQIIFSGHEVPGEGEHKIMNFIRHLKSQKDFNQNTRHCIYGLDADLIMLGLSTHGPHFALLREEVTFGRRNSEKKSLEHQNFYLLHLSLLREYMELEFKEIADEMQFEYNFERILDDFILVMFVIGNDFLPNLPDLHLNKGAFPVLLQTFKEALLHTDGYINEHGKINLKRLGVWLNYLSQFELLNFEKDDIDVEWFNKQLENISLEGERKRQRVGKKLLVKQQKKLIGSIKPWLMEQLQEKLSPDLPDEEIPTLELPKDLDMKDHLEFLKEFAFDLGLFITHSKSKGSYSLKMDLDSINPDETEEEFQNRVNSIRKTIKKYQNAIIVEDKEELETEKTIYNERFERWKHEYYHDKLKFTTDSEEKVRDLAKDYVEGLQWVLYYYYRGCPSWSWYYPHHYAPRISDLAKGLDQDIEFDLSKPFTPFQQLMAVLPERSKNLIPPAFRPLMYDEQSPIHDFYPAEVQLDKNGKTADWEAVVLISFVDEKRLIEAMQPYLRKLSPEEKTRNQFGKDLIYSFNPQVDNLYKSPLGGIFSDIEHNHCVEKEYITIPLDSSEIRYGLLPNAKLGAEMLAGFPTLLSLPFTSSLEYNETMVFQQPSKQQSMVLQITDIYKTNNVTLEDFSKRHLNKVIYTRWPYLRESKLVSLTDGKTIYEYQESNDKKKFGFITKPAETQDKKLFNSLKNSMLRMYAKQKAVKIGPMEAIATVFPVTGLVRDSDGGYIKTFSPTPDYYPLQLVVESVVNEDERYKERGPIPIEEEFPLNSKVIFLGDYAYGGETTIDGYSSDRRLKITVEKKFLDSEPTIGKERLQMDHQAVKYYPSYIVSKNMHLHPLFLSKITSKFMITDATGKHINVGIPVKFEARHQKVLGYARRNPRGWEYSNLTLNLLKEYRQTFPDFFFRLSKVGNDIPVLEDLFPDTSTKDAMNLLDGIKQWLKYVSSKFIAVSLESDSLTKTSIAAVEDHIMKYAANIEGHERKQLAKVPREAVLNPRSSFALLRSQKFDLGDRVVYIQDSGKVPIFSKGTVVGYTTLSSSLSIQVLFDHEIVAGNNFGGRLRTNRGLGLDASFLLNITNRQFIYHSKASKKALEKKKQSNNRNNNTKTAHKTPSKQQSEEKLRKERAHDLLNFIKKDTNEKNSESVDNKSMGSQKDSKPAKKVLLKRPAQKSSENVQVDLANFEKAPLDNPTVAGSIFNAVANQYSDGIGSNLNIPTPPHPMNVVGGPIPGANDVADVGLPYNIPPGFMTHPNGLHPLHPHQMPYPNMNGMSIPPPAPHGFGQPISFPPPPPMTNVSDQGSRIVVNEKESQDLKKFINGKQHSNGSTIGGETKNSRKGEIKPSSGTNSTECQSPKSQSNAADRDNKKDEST

Columns and labels:
[1] = target: T1, Dcp2 internal fragment aa 316–575 (minimal Xrn1-binding region) (S. cerevisiae) (UniProt P53550); assay: two-hybrid; GAL4(DB) fusion and GAL4(AD) fusion cotransformed into the wild-type tester strain GGY1::171; X-Gal colony colour on SSX plates, 30°C; pairs said to be unaffected were also tested in upf1Δ, pat1Δ, scd6Δ, edc3Δ or dcp2-N245 derivatives
T1 sequence: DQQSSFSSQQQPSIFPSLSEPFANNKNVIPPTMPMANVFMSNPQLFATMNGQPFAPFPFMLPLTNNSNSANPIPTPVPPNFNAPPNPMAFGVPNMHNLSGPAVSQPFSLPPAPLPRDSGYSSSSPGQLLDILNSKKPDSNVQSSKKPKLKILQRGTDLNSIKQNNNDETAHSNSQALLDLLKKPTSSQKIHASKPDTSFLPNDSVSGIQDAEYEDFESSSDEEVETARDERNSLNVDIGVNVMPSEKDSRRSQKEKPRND

[2] = target: T2, Dcp2-ND244 (726-amino acid C-terminal fragment) (S. cerevisiae) (UniProt P53550); assay: as above
T2 sequence: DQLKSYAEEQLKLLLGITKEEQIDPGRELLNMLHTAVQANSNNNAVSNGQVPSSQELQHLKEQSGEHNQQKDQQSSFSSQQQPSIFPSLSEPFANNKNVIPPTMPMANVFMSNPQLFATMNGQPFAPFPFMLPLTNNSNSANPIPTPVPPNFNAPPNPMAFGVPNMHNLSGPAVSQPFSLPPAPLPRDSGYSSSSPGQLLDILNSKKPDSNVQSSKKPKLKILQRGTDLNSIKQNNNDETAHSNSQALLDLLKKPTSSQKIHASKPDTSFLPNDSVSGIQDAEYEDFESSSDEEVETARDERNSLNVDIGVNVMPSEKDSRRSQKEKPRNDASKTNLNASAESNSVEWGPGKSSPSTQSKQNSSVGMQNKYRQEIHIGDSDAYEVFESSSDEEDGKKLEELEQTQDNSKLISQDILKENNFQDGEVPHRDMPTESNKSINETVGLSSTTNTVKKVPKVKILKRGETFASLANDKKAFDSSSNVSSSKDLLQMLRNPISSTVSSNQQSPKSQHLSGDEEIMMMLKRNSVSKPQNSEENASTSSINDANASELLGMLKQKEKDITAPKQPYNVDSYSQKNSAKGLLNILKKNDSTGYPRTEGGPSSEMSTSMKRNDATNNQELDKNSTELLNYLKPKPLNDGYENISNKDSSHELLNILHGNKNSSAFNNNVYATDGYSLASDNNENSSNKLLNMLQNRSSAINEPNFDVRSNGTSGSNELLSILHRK

binding [1]: binds
binding [2]: binds weakly
Substance: Xrn1 (from UniProt P22147 1-1528)
